Literature values in patent publication US7259250B2, “C-nitroso compounds and use thereof” (Duke University, priority 2000, dated 2007).
Some results were stated once for a whole list of compounds, not compound by compound.

Conditions: pKa of the parent carbon acid, not of the C-nitroso compound; cited from earlier work

SMILES | pKa of the carbon acid from which the C-nitroso compound is obtained
CC(C)(N=O)C(=O)CCC(=O)Oc1ccccc1C(=O)O [Compound (129a)] | less than 10
CC(=O)C(CCC(=O)Oc1ccccc1C(=O)O)(N=O)C(C)=O [Compound (130a)] | less than 10
